PubChem BioAssay AID493014 (National Center for Advancing Translational Sciences (NCATS), 2011)
Where “and” joins values, the source holds several entries; their conditions need not be identical. Equal values may be shown once. Some of the results follow. These are further read-outs of the screen, such as a control signal, another cell line or another target. No call is given for them. Most of these compounds were active or inconclusive in the main read-out, so they are no random draw. Words in brackets tell the shape of the fitted curve; partial curves, single points and poor fits give uncertain potencies.

Assay: qHTS Assay to Find Inhibitors of Chronic Active B-Cell Receptor Signaling
Details: ABC-DLBCL IkBa-CBG/CBR reporter, luminescence ratio (green luciferase fused to IkBa over red control in TMD8 lymphoma cells), 4 h
Procedure, shortened: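 TMD8 human ABC-DLBCL cells with doxycycline-inducible IκBα–green luciferase fusion and unfused red luciferase, in 0.5% FBS medium; compounds up to 46 uM, 4 h at 37C. Green/red luminescence ratio, filter-overlap corrected, fitted to concentration-response curves.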

[1] = measured here: CBR red luminescence, cell number
[2] = measured here: IkBa-CBG green luminescence

Compound | AC50 [1] | AC50 [2]
CCOCCCNCc1ccc(OC)cc1 | 29.1 µM [falling, single point] | –
CCCn1c(=O)c2c(nc3n2CCN3Cc2ccco2)n(C)c1=O | 0.355 µM [falling, full curve, poor fit] | –
CCN(CC)C(=O)CC(c1ccc2c(c1)OCO2)c1c(OC)cc(OC)c2ccc(=O)oc12 (stereo unspecified) | 7.08 µM [rising, full curve, poor fit] | –
Cc1ccc(NC(=O)c2ccccc2)s1 | 16.4 µM [falling, single point] | –
CCOC(=O)c1ccc(NC(=S)NC2CCCC2)cc1 | 0.58 µM [rising, full curve, poor fit] | –
CC1(C)CC(=O)C=C(NCCc2ccccc2)C1 | 35.5 µM [falling, single point] | –
COc1cc(OC)cc(C(=O)Nc2ccc([N+](=O)[O-])cn2)c1 | 1.64 µM [falling, full curve, poor fit] | –
O=C(Nc1cccc(C(=O)N2CCN(c3cccc(Cl)c3)CC2)c1)c1ccccc1 | 0.112 µM [falling, full curve, poor fit] | –
Cc1nonc1OCCNCc1c(C(=O)N(C)C)nc2ccc(Cl)cn12 | 2 µM [falling, full curve, poor fit] | –
O=C(O)Cn1c(=O)c2cccn2c2ccccc21 | 12.6 µM [rising, partial curve, poor fit] | –
COc1cc(C2c3sc(=O)[nH]c3SC3C(=O)N(c4ccc(Br)cc4)C(=O)C32)ccc1O (stereo unspecified) | 25.1 µM [falling, single point] | –
Cc1nc(=O)c(-c2ccccc2)c(C)n1CCCCCC(=O)O | 29.1 µM [rising, single point] | –
CCCc1[nH]n(-c2nc3ccccc3s2)c(=O)c1C=NCCCN(CC)CC | 22.4 µM [falling, partial curve, poor fit] | –
COc1ccc(/C=N\NC(=O)c2cc(O)c(O)c(O)c2)cc1COc1ccc(C(=O)OCC(C)C)cc1 | 35.5 µM [falling, single point] | –
Nc1nc(SCC(=O)Nc2ccc(Cl)cc2)[nH]c(=O)c1-c1ccccc1 | 0.501 µM [rising, full curve, poor fit] | –
CN(C)c1ccc(/C=N/N2CCN(c3ccccn3)CC2)cc1 | 3.98 µM [rising, single point] | –
CCOC(=O)c1sc(NC(=O)CN2C(=O)NC3(CC(C)CC(C)(C)C3)C2=O)c(C(=O)OCC)c1C (stereo unspecified) | 18.4 µM [rising, partial curve, poor fit] | –
O=C(O)c1ccc(NC2=C(n3nnc4ccccc43)C(=O)c3ccccc3C2=O)cc1 | 2.24 µM [rising, single point] | –
Oc1ccc(Cl)cc1CNCC1CCCO1 (stereo unspecified) | 29.1 µM [rising, single point] | –
Cc1cccc(-c2nsc(SCC(=O)Nc3cc(C)on3)n2)c1 | 6.31 µM [rising, single point] | –
CC(=O)Nc1ccc(S(=O)(=O)N2CCC(NC(=O)C(Cc3cccc(F)c3)NC(C)=O)CC2)cc1 (stereo unspecified) | 2.82 µM [rising, partial curve, poor fit] | –

Compound | AC50 [1] | AC50 [2]
O=C(COC(=O)Cc1ccc(-c2ccccc2)cc1)NCc1ccccc1 | 6.51 µM [rising, partial curve] | 23.1 µM [falling, partial curve, poor fit]
Cc1cc(C)n(CCCNC(=O)C(C)(C)Oc2ccc(Cl)cc2)n1 | 18.4 µM [falling, single point] | –
C=CCC1S/C(=N/N=C/c2cccs2)NC1=O (stereo unspecified) | 25.1 µM [falling, single point] | –
COc1ccc(CC(=O)OCC(=O)Nc2ccc(C(=O)Nc3ccc(OC)cc3)cc2)cc1 | 1.12 µM [falling, partial curve, poor fit] | –
O=C(NC1CCCCCC1)c1cc2c(=O)n3ccccc3nc2s1 | 3.98 µM [falling, full curve, poor fit] | –
CC(=O)c1cccc(N(C(=O)c2ccco2)C(C(=O)NC2CCCC2)c2ccc(N3CCOCC3)cc2)c1 (stereo unspecified) | 0.562 µM [rising, full curve, poor fit] | –
O=C(c1ccc(F)cc1)C(CCCCCC(CN1CCOCC1)C(=O)c1ccc(F)cc1)CN1CCOCC1 (stereo unspecified) | 35.5 µM [falling, single point] | –
CCN(CC)S(=O)(=O)c1cc(C(=O)Nc2ccccc2[N+](=O)[O-])ccc1Cl | 14.6 µM [falling, partial curve] | –
O=c1c2cc(F)ccc2sn1-c1ccc(F)cc1 | 16.4 µM [falling, partial curve, poor fit] | 16.4 µM [falling, partial curve, poor fit]
COc1ccc(C(=O)NCC2(c3ccccc3)CCCC2)c(OC)c1 | 6.31 µM [falling, partial curve] | –
O=C(Nc1cccc(C(=O)N2CCOCC2)c1)NC1CCCCC1 | 8.91 µM [rising, partial curve, poor fit] | –
O=C(c1ccc(COc2ccc(Cl)cc2Cl)o1)N1CCCC1 | 3.16 µM [rising, single point] | –
C[C@@H]1[C@H](O)C[C@@]23COC(=O)C2=CCCC3[C@@]1(C)CCC1COC(=O)C1 (stereo partly specified) | 25.9 µM [rising, partial curve, poor fit] | –
COc1cccc(/C=C/C(=O)Nc2cc(S(=O)(=O)N3CCOCC3)ccc2OC)c1 | 6.51 µM [rising, single point] | 2.59 µM [falling, full curve]
NS(=O)(=O)c1ccc(Sc2nc3ccccc3s2)c([N+](=O)[O-])c1 | 1.12 µM [falling, full curve] | –
COc1ccc2c(c1)[C@H]1[C@H](CO2)[C@H](c2ccccc2)[C@]2(C)C(=O)Nc3cc(F)ccc3C(=O)N12 | 4.11 µM [falling, full curve] | –
CCOc1ccc(NC(=O)c2cc(OC)nc3ccccc23)cc1 | – | 11.2 µM [falling, partial curve]
COc1ccccc1C(=O)NNC(=O)c1cccc(C)c1 | 8.91 µM [falling, partial curve] | –
O=C(Nc1ccc(S(=O)(=O)N2CCOCC2)cc1)c1cc([N+](=O)[O-])ccc1Cl | 11.2 µM [falling, partial curve, poor fit] | –
Cc1cccc(OCc2nnc(SCC(=O)N3c4ccccc4CCc4ccccc43)o2)c1 | 22.4 µM [falling, single point] | –
CCOC(=O)c1cnc2c(-c3ccccc3)c(C)nn2c1N | 2.31 µM [rising, full curve, poor fit] | –

Compound | AC50 [1] | AC50 [2]
COc1ccc(C(=O)c2oc3ccccc3c2N)cc1 | 6.51 µM [falling, single point] | –
COc1ccc2nc(C)cc(SCC(=O)O)c2c1 | 0.00461 µM [falling, full curve, poor fit] | –
Cn1c(=NC(=O)C(C)(C)C)sc2cccc(F)c21 | 14.1 µM [rising, single point] | –
O=C(Nc1ccccc1C(=O)N1CCOCC1)c1ccncc1 | 32.6 µM [falling, partial curve, poor fit] | –
O=C(CN1C(=O)NC(Cc2c[nH]c3ccccc23)C1=O)Nc1cccc(S(=O)(=O)N2CCOCC2)c1 (stereo unspecified) | 35.5 µM [falling, single point] | –
COc1ccc2c(c1)C(=O)N1[C@H]3c4cc(Br)ccc4OC[C@@H]3[C@H](c3ccccc3)[C@]1(C)C(=O)N2 | 5.8 µM [falling, full curve] | 3.26 µM [rising, full curve, poor fit]
CCN1CCN(CCCNC(=O)c2cc3sccc3n2CC)CC1 | 29.1 µM [rising, single point] | –
Cc1cccc(C(=O)Nc2sc3c(c2C#N)CCCCC3)c1 | 0.326 µM [rising, full curve, poor fit] | –
C=CCNCC(=O)Nc1ccccc1SCC(=O)Nc1ccsc1C(=O)OC | 35.5 µM [falling, single point] | –
Cc1c(C)c2ccc(OS(C)(=O)=O)cc2oc1=O | 16.4 µM [rising, single point] | –
Cc1cc(C)c2c(c1)c(C)cc1nnc(SCC(=O)NCc3ccco3)n12 | 29.1 µM [falling, single point] | –
CCCCn1c(=S)[nH]c2ccc(N3CCOCC3)cc2c1=O | 7.08 µM [falling, partial curve] | –
Cc1cc(NC(=O)c2ccc3c(c2)OCCO3)ccc1NC(=O)c1cc2ccccc2o1 | 17.8 µM [falling, single point] | –
CCCS(=O)(=O)N1CCCC(C(=O)c2cccc(Cl)c2)C1 (stereo unspecified) | 6.31 µM [rising, single point] | –
COc1ccc2c(c1)Cc1sc(NC(C)=O)nc1-2 | 2.59 µM [rising, full curve, poor fit] | –
CCOC(=O)c1ccc(N=c2sc(C(=O)OC)cc(=O)n2CCCN2CCOCC2)cc1 | 11.2 µM [falling, single point] and 29.1 µM [falling, single point] | –
Cc1ccc(N=C2NC(=O)/C(=C/c3cccn3C)S2)cc1 | 15.8 µM [falling, partial curve] | –
CCc1ccc2[nH]c(=O)c(CN(Cc3ccc4c(c3)OCO4)Cc3nnnn3C3CCCC3)cc2c1 | 13 µM [falling, single point] | –
CCOC(=O)C1CCN(C2=NC(=O)/C(=C/c3ccc(Cl)cc3)S2)CC1 | 15.8 µM [falling, single point] | –
Cc1c(C(=O)Nc2ccc3nc(N4CCOCC4)sc3c2)oc2ccccc12 | 16.4 µM [falling, partial curve] | –
